Source: the supplement of paper PMC9135407
Several values for one entry are separate records, joined by “and”; a condition that tells them apart may be missing. Equal values may be shown once. Where a name gives a salt, the structure may show the parent alone. ± gives the standard deviation of the averaged measurements. The list shows a part of the results. Baselines shift from plate to plate; read single values as rough.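 Primary human stellate myofibroblasts activated in culture; inactivation shown by regained lipid droplets. Readout: fraction of Hoechst-counted cells exceeding a per-plate Bodipy threshold, duplicate wells, each plate with DMSO negative and nortriptyline positive controls. Hits: control-normalized score beyond the plate's top-tenth-percentile nortriptyline wells, or among its three best wells. Final well concentrations unstated.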

System: primary human hepatic stellate cells (donor 1)
Test: percent Bodipy-positive cells; higher = more lipid droplet accumulation
Settings: 48 h
Protocol: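 Primary lipid accumulation screen in primary human hepatic stellate cell myofibroblasts (donor 1, passage 8) in 384-well plates. 100 nL of library compound was pin-transferred into 30 µL medium in duplicate, and cells were treated for 48 h. The 'Scaled' score combines distance from plate baseline, toxicity and reproducibility penalties, and is normalised to nortriptyline (positive) and DMSO (negative) controls on each plate. A hit is defined as scaled >0.85 or among the top 3 wells per plate.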

[1] = library stock concentration: 2 mM
[2] = library stock concentration: 10 mM
[3] = library stock concentration: 3.33 mM
[4] = library stock concentration: 1 mM

COc1cc2ncn(-c3cc(OCc4ccccc4C(F)(F)F)c(C(N)=O)s3)c2cc1OC
percent Bodipy-positive cells (library stock concentration: 80 uM): 10.6 ± 8.9%
percent Bodipy-positive cells (library stock concentration: 400 uM): 13.4 ± 2.6%
percent Bodipy-positive cells [1]: 13 ± 4.5%
percent Bodipy-positive cells [2]: 74.2 ± 8.8%

C[N+](C)(C)CC=O [Betaine aldehyde chloride]
percent Bodipy-positive cells [2]: 48.1 ± 2.4%

Cn1cc(C2=C(c3ccc(Cl)cc3Cl)C(=O)NC2=O)c2ccccc21
percent Bodipy-positive cells [1]: 82.3 ± 5%
percent Bodipy-positive cells [2]: 91.5 ± 1%

CC1(C)CCC(C)(C)c2cc(C3(c4ccc(C(=O)O)cc4)OCCO3)ccc21
percent Bodipy-positive cells [2]: 9.28 ± 2.6%

O=C(O)c1cn(C2CC2)c2cc(N3CCNCC3)c(F)cc2c1=O [Ciprofloxacin]
percent Bodipy-positive cells (library stock concentration: 6 mM): 7.36% and 8.83%
percent Bodipy-positive cells [2]: 47.2 ± 5.6%

O=C(O)c1cn(C2CC2)c2cc(N3CCNCC3)c(F)cc2c1=O [Ciprofloxacin hydrochloride]
percent Bodipy-positive cells: 17.06 ± 0.099%

CCCn1c(=O)[nH]c(=O)c2[nH]cnc21 [3-n-Propylxanthine]
percent Bodipy-positive cells [2]: 24.2 ± 8.7%

COc1cccc(-c2cc(F)ccc2[C@H]2Cc3nc(N)nc(C)c3C(=O)N2)n1
percent Bodipy-positive cells [2]: 92.57 ± 0.47%

CC(C)NCC(O)COc1ccc(CCOCC2CC2)cc1 (centres undefined) [Betaxolol hydrochloride]
percent Bodipy-positive cells: 63.2 ± 3.9%

CC(C)NCC(O)COc1ccc(CCOCC2CC2)cc1 (centres undefined)
percent Bodipy-positive cells [2]: 41.8 ± 1.8%

CC(C)NCC(O)COc1ccc(CCOCC2CC2)cc1 (centres undefined) [Betaxolol]
percent Bodipy-positive cells [3]: 21.1 ± 6.1%
percent Bodipy-positive cells [2]: 32.4 ± 1.9%

CC(=O)[C@@]1(O)CC[C@H]2[C@@H]3C[C@H](C)C4=CC(=O)C=C[C@]4(C)[C@@]3(F)[C@@H](O)C[C@@]21C [Fluorometholone]
percent Bodipy-positive cells: 9.08 ± 1%
percent Bodipy-positive cells (library stock concentration: 5.3 mM): 1.56 ± 0.31%
percent Bodipy-positive cells [2]: 7.21% and 26.6%

Cc1c(C(=O)NN2CCCCC2)nn(-c2ccc(Cl)cc2Cl)c1-c1ccc(I)cc1
percent Bodipy-positive cells [4]: 9.51% and 17%
percent Bodipy-positive cells [3]: 9.14 ± 1.1%
percent Bodipy-positive cells [2]: 11.3% and 30% and 10.2%

CCc1nc(N)nc(N)c1-c1ccc(Cl)cc1 [Pyrimethamine]
percent Bodipy-positive cells: 43.5 ± 12%
percent Bodipy-positive cells [3]: 15.48 ± 0.13%
percent Bodipy-positive cells (library stock concentration: 8 mM): 28.9 ± 0.45%
percent Bodipy-positive cells [2]: 28.8% and 17%

CCc1nc(N)nc(N)c1-c1ccc(Cl)cc1
percent Bodipy-positive cells [2]: 40.2 ± 10%

Cl.O=C([O-])c1ccc(-c2c3nc(c(-c4ccc(C(=O)O)cc4)c4nc(c(-c5ccc(C(=O)O)cc5)c5ccc([nH]5)c(-c5ccc(C(=O)[O-])cc5)c5ccc2[n-]5)C=C4)C=C3)cc1.[Mn+3] [MnTBAP chloride]
percent Bodipy-positive cells (library stock concentration: 5.7 mM): 14.7 ± 4.3%

Cl.N/C(=N\C(=O)c1nc(Cl)c(N)nc1N)NCc1ccccc1 [Benzamil hydrochloride]
percent Bodipy-positive cells [2]: 98.73 ± 0.98%

CCN(C(=O)c1c(O)c2c(Cl)cccc2n(C)c1=O)c1ccccc1 [Laquinimod]
percent Bodipy-positive cells [3]: 9.73 ± 1.5%
percent Bodipy-positive cells [2]: 9.67 ± 5.2%

COc1cccc(CCc2ccccc2OCC[C@@H]2C[C@@H](O)CN2C)c1.Cl
percent Bodipy-positive cells [2]: 94.6 ± 2.4%

C1CCC(C(CC2CCCCN2)C2CCCCC2)CC1 (centres undefined) [Perhexiline maleate]
percent Bodipy-positive cells: 95.8 ± 4.4%
percent Bodipy-positive cells (library stock concentration: 5.1 mM): 68.6 ± 3.4%
percent Bodipy-positive cells [2]: 70.87 ± 0.2%

COc1ccccc1N1CCN(CCCCNC(=O)c2ccc(-c3ccc(C(C)=O)cc3)cc2)CC1
percent Bodipy-positive cells [2]: 78.5 ± 5.7%

CN1CC(=O)N2[C@H](c3ccc4c(c3)OCO4)c3[nH]c4ccccc4c3C[C@@H]2C1=O [Tadalafil]
percent Bodipy-positive cells [3]: 7.16 ± 4.7%
percent Bodipy-positive cells [2]: 16.7 ± 0.29%

CN1CC(=O)N2[C@H](c3ccc4c(c3)OCO4)c3[nH]c4ccccc4c3C[C@@H]2C1=O
percent Bodipy-positive cells [2]: 9.81 ± 0.77%

CCCCCC(O)C=CC1C(O)CC(O)C1CC=CCCCCOC (stereo not drawn) [Prostaglandin F2.alpha. Alcohol methyl ether]
percent Bodipy-positive cells [4]: 13 ± 3.1%

NC1CCN(c2cccc(Cl)n2)CC1
percent Bodipy-positive cells [2]: 58.3% and 41.3%

Cc1cccc(-c2[nH]c(C(C)(C)C)nc2-c2ccc3c(c2)OCO3)n1
percent Bodipy-positive cells [3]: 48.2 ± 4.1%
percent Bodipy-positive cells [2]: 28.5 ± 3.4%

C[C@@H](N)c1ccc(C(=O)Nc2ccnc3[nH]ccc23)cc1.Cl.Cl
percent Bodipy-positive cells [2]: 100%

CCCCCCCCCCCCC/C=C/[C@@H](O)[C@H](CO)NCCCCCCCC [C8 Ceramine]
percent Bodipy-positive cells [4]: 22.9 ± 6.3%

CCCCCCCCCCCCC/C=C/[C@@H](O)[C@H](CO)NCCCCCCCC [C-8 Ceramine]
percent Bodipy-positive cells [4]: 18.6 ± 6.2%

CC(NC(=O)c1ccccc1/N=C/c1c(O)ccc2ccccc12)c1ccccc1 (centres undefined) [Sirtinol]
percent Bodipy-positive cells [3]: 6.88 ± 1.1%
percent Bodipy-positive cells [2]: 14.4% and 7.75%

COc1cc(C(=O)NCc2ccc(OCCN(C)C)cc2)cc(OC)c1OC [Trimethobenzamide hydrochloride]
percent Bodipy-positive cells: 32.8 ± 12%
percent Bodipy-positive cells (library stock concentration: 4.7 mM): 25.7 ± 6.4%
percent Bodipy-positive cells [2]: 31.2 ± 12%

CCCN1CCCC[C@H]1C(=O)Nc1c(C)cccc1C [Ropivacaine HCl]
percent Bodipy-positive cells [3]: 26.8 ± 7%
percent Bodipy-positive cells [2]: 23 ± 3.1%

CCCN1CCCC[C@H]1C(=O)Nc1c(C)cccc1C
percent Bodipy-positive cells (library stock concentration: 9.9 mM): 8.37 ± 0.85%

Cc1ccc(S(=O)(=O)N[C@@H](Cc2ccccc2)C(=O)CCl)cc1 [Tosyl-Phe-CMK (TPCK)]
percent Bodipy-positive cells (library stock concentration: 14.2 mM): 100%

Cc1ccc(S(=O)(=O)N[C@@H](Cc2ccccc2)C(=O)CCl)cc1 [N-p-Tosyl-L-phenylalanine chloromethyl ketone]
percent Bodipy-positive cells [2]: 98.8 ± 1.1%

CC(C)(OCc1nn(Cc2ccccc2)c2ccccc12)C(=O)O [Bindarit]
percent Bodipy-positive cells [3]: 10.1 ± 2.3%
percent Bodipy-positive cells [2]: 7.78 ± 1.1%

c1cnc(N2CCN(Cc3ccc4c(c3)OCO4)CC2)nc1 [Piribedil]
percent Bodipy-positive cells (library stock concentration: 9.7 mM): 13.3 ± 3.8%
percent Bodipy-positive cells [2]: 6.91 ± 0.94%

c1cnc(N2CCN(Cc3ccc4c(c3)OCO4)CC2)nc1 [Piribedil HCl]
percent Bodipy-positive cells (library stock concentration: 6.7 mM): 12.5 ± 0.62%

c1cnc(N2CCN(Cc3ccc4c(c3)OCO4)CC2)nc1 [Piribedil maleate]
percent Bodipy-positive cells [2]: 20.6 ± 12%

c1cnc(N2CCN(Cc3ccc4c(c3)OCO4)CC2)nc1 [Piribedil hydrochloride]
percent Bodipy-positive cells: 6.5 ± 1.4%
